Binding data for 2 substances are collected here from publication PMC11024197.

Protein sequences, listed by entry. Tags and fused reporters are not part of them. Lines headed by an entry give the natural chain unless they say otherwise; changes in a name come on top. Chains listed by the source or under a name are the forms on record and can include a tag or linker. Residues count along the entry.
PEX13 SH3 domain (residues 261-346) (Q92968, residues 261-346): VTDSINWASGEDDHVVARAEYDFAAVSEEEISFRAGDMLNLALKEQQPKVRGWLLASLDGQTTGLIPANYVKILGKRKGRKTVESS
PEX13 C-terminal peptide (351-403) with WT FxxxF motif (Q92968, form named): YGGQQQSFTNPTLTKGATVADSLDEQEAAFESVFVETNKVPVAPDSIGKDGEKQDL
PEX13 SH3 triple mutant V275Y/V276E/K304G (YEG) (Q92968, form named): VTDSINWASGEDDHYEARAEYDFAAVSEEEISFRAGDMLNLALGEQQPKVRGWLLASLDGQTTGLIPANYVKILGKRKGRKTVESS

These are yes or no findings as the source states them, for the method shown. Some binding calls cover weakened binding; strength is not graded here.

In experiment [1] the target is PEX13 SH3 domain (residues 261-346) (human) (UniProt Q92968). Briefly: NMR titration; 15N-labelled PEX13 construct (100 µM reference) with unlabelled ligand added; 1H,15N correlation spectra; 298 K; 20 mM Tris pH 7.5, 50 mM NaCl; both purified.
Experiment [2] concerns the target PEX13 SH3 triple mutant V275Y/V276E/K304G (YEG) (human) (UniProt Q92968). The experiment is described as above.

“PEX13 C-terminal peptide (351-403) with WT FxxxF motif (from UniProt Q92968 351-403)”: the binding result in experiment [1] is reported as “binds”.

In the case of “PEX13 PxxP peptide (49-61) (from UniProt Q92968 49-61)”, the binding result in experiment [2] is “binds”.
